In the supplement of paper PMC4635364:
Counter-ions that a name gives are not always drawn. The list shows a part of the results. This data set is noisy: repeats of one test often differ as much as different tests do.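 ReNCell VM, a human fetal ventral-midbrain neural progenitor line, was differentiated without mitogens. Blinded raters scored images stained for doublecortin (early neurons) or tyrosine hydroxylase (dopaminergic neurons) against untreated wells (0 = no change). Scores were averaged across repeats and both raters, and compounds averaging 2 or more were selected as hits for retesting.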

Experiments:
[1] = system: ReNCell VM; test: neuronal differentiation score (DCX+ cell fraction vs untreated, manual image score) (score (-3 to 3)); higher = more neuronal differentiation; settings: 2 uM, 2 weeks
[2] = system: ReNCell VM; test: dopaminergic neuron differentiation score (TH+ cell fraction vs untreated, manual image score) (score (0 to 3)); higher = more TH+ dopaminergic neuron differentiation; settings: 2 uM, 4 weeks, BDNF 10 ng/ml + GDNF 10 ng/ml

Compound: CN1CCN(CCCN2c3ccccc3Sc3ccc(C(F)(F)F)cc32)CC1
- neuronal differentiation score ([1]; library: Spectrum): inactive: 0
- dopaminergic neuron differentiation score ([2]; library: Spectrum): inactive: 1

Compound: C[C@H]1CC[C@@H](C(C)(C)O)CC2=C1CC[C@@H]2C [guaiol]
- neuronal differentiation score ([1]; library: Natural): inactive: 0
- dopaminergic neuron differentiation score ([2]; library: Natural): inactive: 0

Compound: C[C@@H](c1ncncc1F)[C@](O)(Cn1cncn1)c1ccc(F)cc1F
- neuronal differentiation score ([1]; library: Spectrum): inactive: 0
- dopaminergic neuron differentiation score ([2]; library: Spectrum): inactive: 1

Compound: CO[C@H]1C[C@H](O[C@H]2[C@H](C)[C@@H](O[C@@H]3O[C@H](C)C[C@H](N(C)C)[C@H]3OC(C)=O)[C@@H](C)C[C@@]3(CO3)C(=O)[C@H](C)[C@@H](OC(C)=O)[C@@H](C)[C@@H](C)OC(=O)[C@@H]2C)O[C@@H](C)[C@@H]1OC(C)=O
- neuronal differentiation score ([1]; library: Spectrum): inactive: 0
- dopaminergic neuron differentiation score ([2]; library: Spectrum): inactive: 0

Compound: C#C[C@]1(O)CC[C@H]2[C@@H]3[C@H](C)CC4=C(CCC(=O)C4)[C@H]3CC[C@@]21C [Tibolone]
- neuronal differentiation score ([1]; library: Prestwick): inactive: 0
- dopaminergic neuron differentiation score ([2]; library: Prestwick): inactive: 0

Compound: c1ccc2cc(C3=NCCN3)ncc2c1 [BU 226 hydrochloride]
- neuronal differentiation score ([1]; library: Tocriscreen): inactive: 0
- dopaminergic neuron differentiation score ([2]; library: Tocriscreen): inactive: 0

Compound: CNc1ncnc2c1ncn2[C@@H]1O[C@H](CO)[C@@H](O)[C@H]1O [N6-Methyladenosine]
- neuronal differentiation score ([1]; library: LOPAC): inactive: 1
- dopaminergic neuron differentiation score ([2]; library: LOPAC): inactive: 0

Compound: COc1c(-c2ccccc2)oc2c(ccc3occc32)c1=O [karanjin]
- neuronal differentiation score ([1]; library: Natural): inactive: 0
- dopaminergic neuron differentiation score ([2]; library: Natural): inactive: 0

Compound: CC(CCc1ccc(O)cc1)NCC(O)c1ccc(O)cc1 (stereo unspecified)
- neuronal differentiation score ([1]; library: Spectrum): inactive: 0
- dopaminergic neuron differentiation score ([2]; library: Spectrum): inactive: 0

Compound: Oc1ccc([C@@H]2CNCc3sccc32)cc1O
- neuronal differentiation score ([1]; library: LOPAC): inactive: 0
- dopaminergic neuron differentiation score ([2]; library: LOPAC): inactive: 0

Compound: CN(C)CC(c1ccc(O)cc1)C1(O)CCCCC1 (stereo unspecified)
- neuronal differentiation score ([1]; library: Spectrum): inactive: -1
- dopaminergic neuron differentiation score ([2]; library: Spectrum): inactive: 0

Compound: CN(C)CCc1c[nH]c2ccc(Cn3cncn3)cc12
- neuronal differentiation score ([1]; library: Spectrum): inactive: 1
- dopaminergic neuron differentiation score ([2]; library: Spectrum): inactive: 0

Compound: NCc1ccccc1CC(=O)N[C@@H]1C(=O)N2C(C(=O)O)=C(CSc3nnnn3CC(=O)O)CS[C@H]12 [Ceforanide]
- neuronal differentiation score ([1]; library: Prestwick): inactive: 0
- dopaminergic neuron differentiation score ([2]; library: Prestwick): inactive: 0

Compound: COc1cc2nc(N3CCN(C(=O)OCc4ccccc4)[C@H](C(=O)NC(C)(C)C)C3)nc(N)c2cc1OC
- neuronal differentiation score ([1]; library: LOPAC): inactive: 0
- dopaminergic neuron differentiation score ([2]; library: LOPAC): inactive: 1

Compound: Cn1cc(C(F)(F)F)nc1-c1ccc(OCC(O)CNCCOc2ccc(O)c(C(N)=O)c2)cc1 (stereo unspecified)
- neuronal differentiation score ([1]; library: LOPAC): inactive: 0
- dopaminergic neuron differentiation score ([2]; library: LOPAC): inactive: 0

Compound: O=C(C=Cc1ccccc1)NC(NC(=S)Nc1ccc(Cl)cc1)C(Cl)(Cl)Cl (stereo unspecified)
- neuronal differentiation score ([1]; library: Tocriscreen): inactive: 0
- dopaminergic neuron differentiation score ([2]; library: Tocriscreen): inactive: 0

Compound: Cc1cc(N)c2ccccc2[n+]1CCCCCCCCCC[n+]1c(C)cc(N)c2ccccc21 [Dequalinium chloride hydrate]
- neuronal differentiation score ([1]; library: LOPAC): inactive: 0
- dopaminergic neuron differentiation score ([2]; library: LOPAC): inactive: 0

Compound: O=C(O)c1cccnc1C(=O)O
- neuronal differentiation score ([1]; library: Spectrum): inactive: 0
- dopaminergic neuron differentiation score ([2]; library: Spectrum): inactive: 0

Compound: Cc1ncc(C[n+]2csc(CCO)c2C)c(N)n1
- neuronal differentiation score ([1]; library: Spectrum): active: 3
- dopaminergic neuron differentiation score ([2]; library: Spectrum): inactive: 0

Compound: COc1cc2c(cc1OC)-c1cc3nc4ccccc4nc3n1C(C)(C)C2
- neuronal differentiation score ([1]; library: Tocriscreen): inactive: 0
- dopaminergic neuron differentiation score ([2]; library: Tocriscreen): inactive: 0

Compound: O=C1C(O)=C([C@H]2CC[C@H](c3ccc(Cl)cc3)CC2)C(=O)c2ccccc21 [Atovaquone]
- neuronal differentiation score ([1]; library: Prestwick): inactive: 0
- dopaminergic neuron differentiation score ([2]; library: Prestwick): inactive: 0

Compound: CC(C)NC[C@H](O)COc1cccc2[nH]ccc12 [(S)-(-)-Pindolol]
- neuronal differentiation score ([1]; library: Tocriscreen): inactive: 0
- dopaminergic neuron differentiation score ([2]; library: Tocriscreen): inactive: 0

Compound: C[C@]12C=CC(=O)C=C1CC[C@H]1[C@@H]3C[C@@H](O)[C@](O)(C(=O)CO)[C@@]3(C)C[C@H](O)[C@@]12F
- neuronal differentiation score ([1]; library: Spectrum): inactive: 0
- dopaminergic neuron differentiation score ([2]; library: Spectrum): inactive: 0

Compound: C#CC(N)CCC(=O)O (stereo unspecified) [gamma-Acetylinic GABA]
- neuronal differentiation score ([1]; library: LOPAC): inactive: 0
- dopaminergic neuron differentiation score ([2]; library: LOPAC): inactive: 0

Compound: COc1ccc(-c2nc(C(=O)N3CCN(C)CC3)sc2-c2ccc(OC)cc2)cc1
- neuronal differentiation score ([1]; library: Tocriscreen): inactive: 0
- dopaminergic neuron differentiation score ([2]; library: Tocriscreen): inactive: 0

Compound: CCOc1ccccc1C(N)=O
- neuronal differentiation score ([1]; library: Spectrum): inactive: 0
- dopaminergic neuron differentiation score ([2]; library: Spectrum): inactive: 1

Compound: CNCC(O)c1ccc(O)c(O)c1 (stereo unspecified) [Racepinephrine HCl]
- neuronal differentiation score ([1]; library: Prestwick): inactive: 0
- dopaminergic neuron differentiation score ([2]; library: Prestwick): inactive: 0

Compound: N[C@@H](CS(=O)O)C(=O)O [L-Cysteinesulfinic acid]
- neuronal differentiation score ([1]; library: Tocriscreen): inactive: 0
- dopaminergic neuron differentiation score ([2]; library: Tocriscreen): inactive: 0

Compound: Nc1nc(NC2CC2)c2ncn([C@H]3C=C[C@@H](CO)C3)c2n1
- neuronal differentiation score ([1]; library: Spectrum): inactive: 0
- dopaminergic neuron differentiation score ([2]; library: Spectrum): inactive: 0

Compound: O=C(O[C@@H]1Cc2c(O)cc(O)cc2O[C@@H]1c1cc(O)c(=O)c2c(O)c(O)cc([C@H]3Oc4cc(O)cc(O)c4C[C@H]3O)c2c1)c1cc(O)c(O)c(O)c1
- neuronal differentiation score ([1]; library: Spectrum): inactive: 0
- dopaminergic neuron differentiation score ([2]; library: Spectrum): inactive: 0

Compound: NS(=O)(=O)c1cc2c(cc1C(F)(F)F)NC(Cc1ccccc1)NS2(=O)=O (stereo unspecified)
- neuronal differentiation score ([1]; library: Spectrum): inactive: 0
- dopaminergic neuron differentiation score ([2]; library: Spectrum): inactive: 0

Compound: CC(=O)Oc1ccccc1C(=O)O
- neuronal differentiation score ([1]; library: Spectrum): inactive: 0
- dopaminergic neuron differentiation score ([2]; library: Spectrum): inactive: 0

Compound: CCOC(=O)NNc1nncc2ccccc12
- neuronal differentiation score ([1]; library: Spectrum): inactive: 0
- dopaminergic neuron differentiation score ([2]; library: Spectrum): inactive: 0
